One experiment deals with SET 1-127-DDK (human) (UniProt Q01105). Nature of the experiment: co-IP; A549 cells transiently transfected with DDK-tagged full-length or truncated SET, with or without EMQA 5 uM; endogenous PP2Ac.
Another experiment deals with SET 1-177-DDK (human) (UniProt Q01105). Described as above.
Experiment [1] deals with full-length SET-DDK (human) (UniProt Q01105). The description is as above.
The target of another experiment is SET 76-277-DDK (human) (UniProt Q01105). The description is as above.
The next experiment concerns the target SET 1-227-DDK (human) (UniProt Q01105). The experiment is described as above.
Experiment [2] deals with PP2Ac-GST recombinant protein (UniProt P67775). Description: SPR; BIAcore T200; PP2Ac-GST held on a CM5 chip pre-coated with GST-capture antibodies; mixtures of full-length and truncated SET in the indicated proportions injected in a fixed dose of EMQA; both purified. On the technique in general: Surface plasmon resonance follows binding to a sensor surface in real time, without labels.

Protein sequences, listed by entry. Tags and fused reporters are not part of them. Lines headed by an entry give the natural chain unless they say otherwise; changes in a name come on top. Chains listed by the source or under a name are the forms on record and can include a tag or linker. Residues count along the entry.
SET 76-277-DDK (Q01105, residues 89-290): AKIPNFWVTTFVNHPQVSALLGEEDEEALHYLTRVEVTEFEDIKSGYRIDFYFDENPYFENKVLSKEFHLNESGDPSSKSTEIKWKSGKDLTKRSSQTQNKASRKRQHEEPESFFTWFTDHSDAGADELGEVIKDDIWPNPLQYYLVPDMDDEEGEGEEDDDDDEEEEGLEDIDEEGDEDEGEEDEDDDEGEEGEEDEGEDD
recombinant truncated SET protein SET 1-127 (Q01105-2, form named): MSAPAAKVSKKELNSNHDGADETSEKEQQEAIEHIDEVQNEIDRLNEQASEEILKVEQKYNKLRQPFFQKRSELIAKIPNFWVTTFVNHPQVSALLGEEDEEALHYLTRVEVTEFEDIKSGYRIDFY
recombinant truncated SET protein SET 1-177 (Q01105-2, form named): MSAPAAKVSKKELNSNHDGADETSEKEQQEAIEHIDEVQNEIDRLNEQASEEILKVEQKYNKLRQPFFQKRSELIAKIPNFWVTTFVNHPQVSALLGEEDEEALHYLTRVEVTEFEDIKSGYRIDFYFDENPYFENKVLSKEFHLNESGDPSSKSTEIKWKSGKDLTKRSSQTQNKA
full-length SET-DDK (Q01105-2, form named): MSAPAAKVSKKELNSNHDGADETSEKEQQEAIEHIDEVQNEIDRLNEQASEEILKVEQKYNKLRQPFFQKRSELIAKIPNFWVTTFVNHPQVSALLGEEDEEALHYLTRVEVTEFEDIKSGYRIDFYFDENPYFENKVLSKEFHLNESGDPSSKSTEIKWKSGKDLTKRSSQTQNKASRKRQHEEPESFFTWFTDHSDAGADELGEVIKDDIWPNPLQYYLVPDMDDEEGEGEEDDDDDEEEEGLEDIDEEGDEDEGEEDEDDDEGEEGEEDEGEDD
recombinant truncated SET protein SET 1-227 (Q01105-2, form named): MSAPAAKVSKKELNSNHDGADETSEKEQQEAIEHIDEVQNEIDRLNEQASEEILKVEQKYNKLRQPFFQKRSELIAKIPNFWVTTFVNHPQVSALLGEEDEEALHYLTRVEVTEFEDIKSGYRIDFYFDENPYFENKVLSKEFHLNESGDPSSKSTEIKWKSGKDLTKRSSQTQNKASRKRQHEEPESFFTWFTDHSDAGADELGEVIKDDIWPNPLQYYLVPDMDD
UniProt P67775: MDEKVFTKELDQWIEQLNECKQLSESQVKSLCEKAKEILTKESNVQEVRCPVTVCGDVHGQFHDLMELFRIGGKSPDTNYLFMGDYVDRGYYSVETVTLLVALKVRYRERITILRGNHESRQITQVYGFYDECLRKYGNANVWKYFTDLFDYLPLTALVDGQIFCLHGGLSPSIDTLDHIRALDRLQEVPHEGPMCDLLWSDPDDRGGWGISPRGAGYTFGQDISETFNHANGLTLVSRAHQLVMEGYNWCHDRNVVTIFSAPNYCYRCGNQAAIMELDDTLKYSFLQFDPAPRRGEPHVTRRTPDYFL

Results are given in words; binding and its absence hold for the method and conditions named. Binding can be weak; no strength is given. For some assays here: Binding seen in cells or lysates may run through a third protein.

In the case of “PP2A-catalytic subunit (from UniProt P67775) (enzyme)”, the binding result (with SET 1-127-DDK (human); in the experiment with SET 1-177-DDK (human); in experiment [1]; with SET 76-277-DDK (human); with SET 1-227-DDK (human)) was “binds” each time.

For the substance “recombinant truncated SET protein SET 1-127 (from UniProt Q01105-2 1-127) (domain or fragment)”, the binding entry in experiment [2] is “binds”.

For the substance “recombinant truncated SET protein SET 1-177 (from UniProt Q01105-2 1-177) (domain or fragment)”, the binding result in experiment [2] is recorded as “binds”.

“recombinant truncated SET protein SET 1-227 (from UniProt Q01105-2 1-227) (domain or fragment)”: in experiment [2], the binding result was “binds”.

For the origin of these results see article PMC4808023.
